Measured values taken from PMC11674061.
These are yes or no findings as the source states them, for the method shown. In cells and extracts the contact can be indirect. Some entries that bind do so weakly or less than the wild type.

By UniProt entry, the sequences of proteins in these tests, tags left out. Where a name states a change or a piece, a line headed by the entry shows the natural chain unless it says otherwise. Chains listed by the source or under a name are the forms on record and can include a tag or linker.
UniProt P34152: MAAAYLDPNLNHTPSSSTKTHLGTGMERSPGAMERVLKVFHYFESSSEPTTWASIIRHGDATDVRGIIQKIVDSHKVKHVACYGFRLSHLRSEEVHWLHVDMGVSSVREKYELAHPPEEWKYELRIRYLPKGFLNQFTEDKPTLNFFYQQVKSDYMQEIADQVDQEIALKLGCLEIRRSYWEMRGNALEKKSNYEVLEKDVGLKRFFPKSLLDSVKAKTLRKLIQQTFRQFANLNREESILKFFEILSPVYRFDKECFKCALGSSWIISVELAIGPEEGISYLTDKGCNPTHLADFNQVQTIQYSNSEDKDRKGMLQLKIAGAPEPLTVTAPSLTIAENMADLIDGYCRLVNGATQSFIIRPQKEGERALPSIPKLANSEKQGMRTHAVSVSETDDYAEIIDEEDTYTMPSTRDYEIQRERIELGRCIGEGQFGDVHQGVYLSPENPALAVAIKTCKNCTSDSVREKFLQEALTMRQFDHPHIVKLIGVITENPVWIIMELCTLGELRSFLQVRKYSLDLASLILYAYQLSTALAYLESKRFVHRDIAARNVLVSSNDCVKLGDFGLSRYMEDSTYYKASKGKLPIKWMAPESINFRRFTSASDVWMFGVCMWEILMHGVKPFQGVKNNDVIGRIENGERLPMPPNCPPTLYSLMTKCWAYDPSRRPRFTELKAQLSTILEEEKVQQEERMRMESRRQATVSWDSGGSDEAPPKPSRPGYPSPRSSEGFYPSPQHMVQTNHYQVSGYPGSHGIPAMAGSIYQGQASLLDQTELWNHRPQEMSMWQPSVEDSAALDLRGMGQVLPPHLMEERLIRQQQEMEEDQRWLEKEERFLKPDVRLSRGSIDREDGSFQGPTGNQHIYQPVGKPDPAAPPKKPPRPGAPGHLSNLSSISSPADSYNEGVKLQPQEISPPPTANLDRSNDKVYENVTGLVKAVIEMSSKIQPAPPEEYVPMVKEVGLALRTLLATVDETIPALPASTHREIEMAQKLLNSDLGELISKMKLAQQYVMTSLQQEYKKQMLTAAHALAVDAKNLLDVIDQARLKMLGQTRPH
GFP-tagged mouse FAK mutant with Ser708, Thr739 and Ser886 replaced with Ala (P34152, form named): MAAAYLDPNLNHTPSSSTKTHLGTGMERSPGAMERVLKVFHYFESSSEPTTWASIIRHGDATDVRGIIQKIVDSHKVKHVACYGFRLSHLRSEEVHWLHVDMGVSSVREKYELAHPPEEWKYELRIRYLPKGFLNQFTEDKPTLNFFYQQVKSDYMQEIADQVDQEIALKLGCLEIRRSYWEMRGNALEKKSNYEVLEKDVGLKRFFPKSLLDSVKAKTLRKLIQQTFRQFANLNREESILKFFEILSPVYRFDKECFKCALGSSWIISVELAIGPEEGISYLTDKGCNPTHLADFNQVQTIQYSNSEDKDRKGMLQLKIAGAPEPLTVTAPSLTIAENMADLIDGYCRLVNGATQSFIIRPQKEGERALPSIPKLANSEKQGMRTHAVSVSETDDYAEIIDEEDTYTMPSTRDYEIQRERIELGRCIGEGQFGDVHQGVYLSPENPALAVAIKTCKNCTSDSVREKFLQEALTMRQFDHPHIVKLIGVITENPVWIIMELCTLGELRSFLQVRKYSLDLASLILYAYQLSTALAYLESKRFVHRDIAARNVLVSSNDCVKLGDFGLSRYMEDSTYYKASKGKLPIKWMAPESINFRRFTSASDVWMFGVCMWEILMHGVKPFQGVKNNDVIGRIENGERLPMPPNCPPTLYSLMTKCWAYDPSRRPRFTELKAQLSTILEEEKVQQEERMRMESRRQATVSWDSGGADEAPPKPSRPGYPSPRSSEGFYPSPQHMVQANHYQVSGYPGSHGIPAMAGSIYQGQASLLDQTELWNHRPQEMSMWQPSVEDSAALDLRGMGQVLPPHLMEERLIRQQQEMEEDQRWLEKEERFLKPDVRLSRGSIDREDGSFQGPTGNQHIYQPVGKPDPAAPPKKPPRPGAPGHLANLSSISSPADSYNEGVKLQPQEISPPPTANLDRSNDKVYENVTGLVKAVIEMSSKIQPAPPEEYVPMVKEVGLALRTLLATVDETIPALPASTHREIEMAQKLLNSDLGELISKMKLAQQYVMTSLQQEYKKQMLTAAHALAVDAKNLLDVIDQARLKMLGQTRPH
UniProt P49023: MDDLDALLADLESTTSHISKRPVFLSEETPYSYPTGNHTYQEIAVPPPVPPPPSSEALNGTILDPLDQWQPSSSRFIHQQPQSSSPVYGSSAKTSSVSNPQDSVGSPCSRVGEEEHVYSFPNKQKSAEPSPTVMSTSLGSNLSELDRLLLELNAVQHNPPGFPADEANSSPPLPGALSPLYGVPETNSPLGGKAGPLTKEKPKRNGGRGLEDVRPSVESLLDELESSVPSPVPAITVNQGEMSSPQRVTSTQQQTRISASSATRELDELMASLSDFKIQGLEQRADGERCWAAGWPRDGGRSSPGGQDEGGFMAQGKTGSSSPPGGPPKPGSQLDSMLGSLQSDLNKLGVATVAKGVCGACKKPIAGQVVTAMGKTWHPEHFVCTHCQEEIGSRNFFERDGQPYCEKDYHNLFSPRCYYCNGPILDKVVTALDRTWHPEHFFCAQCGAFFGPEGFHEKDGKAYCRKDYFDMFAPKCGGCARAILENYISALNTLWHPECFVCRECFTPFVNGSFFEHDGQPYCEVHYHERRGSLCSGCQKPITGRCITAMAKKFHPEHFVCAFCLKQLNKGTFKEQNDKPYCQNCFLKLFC

Biological target: GFP-tagged mouse FAK mutant with Ser708, Thr739 and Ser886 replaced with Ala (mouse) (UniProt P34152)
Test: co-IP; lysates of 293T FAK-KO cells transfected with GFP-tagged WT or MUT FAK (20 mM Tris-HCl pH 7.4, 150 mM NaCl, 0.1% Triton X-100) incubated with anti-GFP magnetic beads at 4 °C for 2 h; immunoprecipitates blotted with anti-paxillin and anti-talin

paxillin (from UniProt P49023 1-591)
binding: binds
